In the assay the target is GFP‐Eps8‐wild type (WT) (mouse (primer names: mEps8)) (UniProt Q08509). The assay can be described thus: co-IP; GFP-trap (anti-GFP nanobody-coated agarose beads) of GFP-Eps8-WT bait from CAD cell lysate, 1 h at 4°C, washes in 10 mM Tris, 150 mM NaCl, 0.5% Triton, pH 7.5; cells treated with DMSO or 50 μM CK-666 for 1 h; Western blots for endogenous IRSp53 and IRTKS. Background: Immunoblotting shows a protein as a band on a membrane.

By UniProt entry, the sequences of proteins in these tests, tags left out.
UniProt Q08509: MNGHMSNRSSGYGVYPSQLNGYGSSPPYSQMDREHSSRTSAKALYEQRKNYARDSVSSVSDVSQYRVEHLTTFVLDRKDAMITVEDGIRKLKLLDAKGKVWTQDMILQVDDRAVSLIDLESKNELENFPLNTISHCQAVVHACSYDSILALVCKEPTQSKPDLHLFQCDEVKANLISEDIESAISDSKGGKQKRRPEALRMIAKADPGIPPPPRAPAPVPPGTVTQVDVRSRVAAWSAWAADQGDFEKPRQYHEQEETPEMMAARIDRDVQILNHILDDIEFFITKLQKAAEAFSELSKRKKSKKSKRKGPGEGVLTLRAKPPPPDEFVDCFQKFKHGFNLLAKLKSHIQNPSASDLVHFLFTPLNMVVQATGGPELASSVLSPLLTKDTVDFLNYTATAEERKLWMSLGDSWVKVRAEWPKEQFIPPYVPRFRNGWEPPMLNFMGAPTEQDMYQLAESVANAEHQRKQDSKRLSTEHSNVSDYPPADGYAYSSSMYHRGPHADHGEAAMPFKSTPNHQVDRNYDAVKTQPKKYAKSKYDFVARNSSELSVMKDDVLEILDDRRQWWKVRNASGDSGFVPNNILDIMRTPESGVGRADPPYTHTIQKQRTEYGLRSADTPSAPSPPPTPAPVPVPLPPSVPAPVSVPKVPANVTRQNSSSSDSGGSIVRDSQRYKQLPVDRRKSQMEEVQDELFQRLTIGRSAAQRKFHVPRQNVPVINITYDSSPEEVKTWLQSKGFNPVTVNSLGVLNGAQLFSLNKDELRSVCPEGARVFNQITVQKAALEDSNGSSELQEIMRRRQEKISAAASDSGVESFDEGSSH
UniProt Q8BKX1: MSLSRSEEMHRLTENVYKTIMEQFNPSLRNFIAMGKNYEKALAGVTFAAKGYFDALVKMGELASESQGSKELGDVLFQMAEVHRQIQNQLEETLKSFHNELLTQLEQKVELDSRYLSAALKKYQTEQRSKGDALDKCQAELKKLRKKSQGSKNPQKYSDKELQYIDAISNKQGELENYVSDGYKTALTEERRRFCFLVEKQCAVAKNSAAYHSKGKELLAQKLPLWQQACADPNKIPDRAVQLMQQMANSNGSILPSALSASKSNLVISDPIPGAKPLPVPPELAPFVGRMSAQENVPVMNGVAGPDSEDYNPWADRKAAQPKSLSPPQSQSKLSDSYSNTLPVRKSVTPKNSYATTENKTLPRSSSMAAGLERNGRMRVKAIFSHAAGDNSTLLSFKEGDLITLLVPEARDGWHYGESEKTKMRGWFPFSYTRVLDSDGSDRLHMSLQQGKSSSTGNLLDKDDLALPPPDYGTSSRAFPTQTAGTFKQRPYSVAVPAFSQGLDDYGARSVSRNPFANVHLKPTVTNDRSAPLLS

These are yes or no findings as the source states them, for the method shown. In cells and extracts the contact can be indirect. Some binding calls cover weakened binding; strength is not graded here.

Take “IRSp53 (insulin receptor tyrosine kinase substrate protein of 53 kDa) (from UniProt Q8BKX1 1-535)”: the binding result is “binds”.

B1: IRTKS (insulin receptor tyrosine kinase substrate) (protein, UniProt Q9DBJ3 1-514)
chain: MSRGPEEVNRLTENTYRNVMEQFNPGLRNLINLGKNYEKAVNAMILAGKAYYDGVAKIGEIATGSPVSTELGHVLIEISSTHKKLNETLDENFKKFHKDIIHELEKKTELDVKYMNATLKRYQAEHRNKLDSLEKSQAELKKIRRKSQGGRNALKYEHKEIEYVETVTSRQSEIQKFIADGCKEALLEEKRRFCFLVDKHCSFASHIHYYHMQSAELLNSKLPRWQETCCDATKVPEKIMNMIEEIKTPISTPVSGTPQPSPMIERSKMIGKDYDTLSKYSPKMPPAPSVKAYTSPLIDMFNNPATAAQSSEKTNNSTANTGEDPSLQRSVSVATGLNMMKKQKVKTIFPHTAGNNKTLLSFAQGDVLTLLIPEEKDGWLYGEHDTTKARGWFPSSYTKLLEENEAMSVPTPSPAPVRSISTVDLTEKSSVVIPPPDYLECLSMGATSDKKAGAPKVPSASTFRAPVSRPDATSTSPSDANGTAKPPFLSGENPFATVKLRPTVTNDRSAPIIR
Take B1: the binding result is listed as “no binding”.

Source of the values: publication PMC10711657.
